Results reported in patent US10045939B2, “Unit doses, aerosols, kits, and methods for treating heart conditions by pulmonary administration” (InCarda Therapeutics, Inc., priority 2009, dated 2018).
Read-outs that look alike come from different tables or passages of the source.

Type: in vivo, human
Details: for Aftertaste: 5 minutes after inhalation; for Taste: 2 volunteers
Method: The following solution strengths were prepared for taste evaluation: (1) diltiazem hydrochloride—50 mg/ml solution in distilled water; and (2) flecainide acetate—30 mg/ml solution in distilled water.
The Aeroneb®GO device was used because it is a simple-to-use device developed specifically for patients who require respiratory therapy in and away from the home. The device can be used by patients of all ages (infant through adult) and aerosolizes solutions intended for inhalation. Aeroneb® Go works with either an AC wall controller or a battery pack, and can be cleaned with soap and water. More details about this device can be obtained at www.aerogen.com.
Number of subjects: 2 healthy male volunteers
Water was poured into the nebulizer cup, and the nebulizer was turned on. The visible cloud of aerosol generated when the nebulizer was turned on was treated as a qualitative aerosol standard.
About 1 ml of the 30 mg/ml solution was poured into the cup of the nebulizer. The nebulizer was turned on and the resulting aerosol was similar to but not as dense as the aerosol formed with the water alone.
The nebulizer was then placed in the mouth and switched on. Deep lung inhalation was performed through the nebulizer. About 40 μl (˜1.2 mg of flecainide acetate) of the test solution was inhaled. The inhaled dose was sub-therapeutic in nature as it was much less than the regular 100 mg administered as tablets. Flecainide acetate is also available as an IV injection in Europe as 10 mg/ml strength in 15 ml ampoules.
About 1 ml of the 50 mg/ml solution was poured into the cup of the nebulizer. The nebulizer was turned on and the resulting aerosol was similar to but not as dense as the aerosol formed with the water alone.
The nebulizer was then placed in the mouth and a switched on. Deep lung inhalation was performed through the nebulizer. About 40 μl (˜2 mg of diltiazem hydrochloride) of the test solution was inhaled. The inhaled dose was sub-therapeutic in nature as it was much less than the IV injection marketed in the U.S. as 5 mg/ml in 5 ml vials.

Structure (SMILES)	Aftertaste (about 40 μl of 50 mg/ml solution (~2 mg))	Taste (about 40 μl of 50 mg/ml solution (~2 mg) inhaled by nebulizer)	Aftertaste (about 40 μl of 30 mg/ml solution (~1.2 mg))	Taste (about 40 μl of 30 mg/ml solution (~1.2 mg) inhaled by nebulizer)
COc1ccc([C@@H]2Sc3ccccc3N(CCN(C)C)C(=O)[C@@H]2OC(C)=O)cc1.Cl [diltiazem, diltiazem hydrochloride]	none to little aftertaste	Mildly bitter taste felt in the back of the tongue		
O=C(NCC1CCCCN1)c1cc(OCC(F)(F)F)ccc1OCC(F)(F)F (stereo not shown) [flecainide, flecainide acetate]			none to little aftertaste	Mildly bitter taste felt in the back of the tongue
